Measured values from publication PMC5823934.
These are yes or no findings as the source states them, for the method shown. Binding seen in cells or lysates may run through a third protein. Some binding calls cover weakened binding; strength is not graded here.

Molecular target: epidermal growth factor receptor (EGFR) kinase (endogenous, RPE1 cells) (human (endogenous in RPE1)) (UniProt P00533)
Test: co-IP; anti-EGFR immunoprecipitates from serum-fed or serum-starved RPE1 cell lysates; anti-USP8 and anti-EGFR immunoblots

B1: USP8 (endogenous, RPE1 cells) (enzyme, UniProt P40818 1-1118)
chain: MPAVASVPKELYLSSSLKDLNKKTEVKPEKISTKSYVHSALKIFKTAEECRLDRDEERAYVLYMKYVTVYNLIKKRPDFKQQQDYFHSILGPGNIKKAVEEAERLSESLKLRYEEAEVRKKLEEKDRQEEAQRLQQKRQETGREDGGTLAKGSLENVLDSKDKTQKSNGEKNEKCETKEKGAITAKELYTMMTDKNISLIIMDARRMQDYQDSCILHSLSVPEEAISPGVTASWIEAHLPDDSKDTWKKRGNVEYVVLLDWFSSAKDLQIGTTLRSLKDALFKWESKTVLRNEPLVLEGGYENWLLCYPQYTTNAKVTPPPRRQNEEVSISLDFTYPSLEESIPSKPAAQTPPASIEVDENIELISGQNERMGPLNISTPVEPVAASKSDVSPIIQPVPSIKNVPQIDRTKKPAVKLPEEHRIKSESTNHEQQSPQSGKVIPDRSTKPVVFSPTLMLTDEEKARIHAETALLMEKNKQEKELRERQQEEQKEKLRKEEQEQKAKKKQEAEENEITEKQQKAKEEMEKKESEQAKKEDKETSAKRGKEITGVKRQSKSEHETSDAKKSVEDRGKRCPTPEIQKKSTGDVPHTSVTGDSGSGKPFKIKGQPESGILRTGTFREDTDDTERNKAQREPLTRARSEEMGRIVPGLPSGWAKFLDPITGTFRYYHSPTNTVHMYPPEMAPSSAPPSTPPTHKAKPQIPAERDREPSKLKRSYSSPDITQAIQEEEKRKPTVTPTVNRENKPTCYPKAEISRLSASQIRNLNPVFGGSGPALTGLRNLGNTCYMNSILQCLCNAPHLADYFNRNCYQDDINRSNLLGHKGEVAEEFGIIMKALWTGQYRYISPKDFKITIGKINDQFAGYSQQDSQELLLFLMDGLHEDLNKADNRKRYKEENNDHLDDFKAAEHAWQKHKQLNESIIVALFQGQFKSTVQCLTCHKKSRTFEAFMYLSLPLASTSKCTLQDCLRLFSKEEKLTDNNRFYCSHCRARRDSLKKIEIWKLPPVLLVHLKRFSYDGRWKQKLQTSVDFPLENLDLSQYVIGPKNNLKKYNLFSVSNHYGGLDGGHYTAYCKNAARQRWFKFDDHEVSDISVSSVKSSAAYILFYTSLGPRVTDVAT
In the case of B1, the binding is reported as “binds”.
